According to US20250012721A1, “FLUORESCENCE DETECTION KIT FOR ACTIVATED COMPLEMENT C1s, DETECTION METHOD USING SAME, AND USE THEREOF” (JIANGSU UNIVERSITY, priority 2022, published 2025):
At least one structure is not confirmed: it was looked up by name or label, or the drawing left a doubt.

Target: T1, activated C1s (Homo sapiens, UniProt P09871)
T1 construct: purchased Complement Technology
T1 sequence (P09871 16-437 limits assumed): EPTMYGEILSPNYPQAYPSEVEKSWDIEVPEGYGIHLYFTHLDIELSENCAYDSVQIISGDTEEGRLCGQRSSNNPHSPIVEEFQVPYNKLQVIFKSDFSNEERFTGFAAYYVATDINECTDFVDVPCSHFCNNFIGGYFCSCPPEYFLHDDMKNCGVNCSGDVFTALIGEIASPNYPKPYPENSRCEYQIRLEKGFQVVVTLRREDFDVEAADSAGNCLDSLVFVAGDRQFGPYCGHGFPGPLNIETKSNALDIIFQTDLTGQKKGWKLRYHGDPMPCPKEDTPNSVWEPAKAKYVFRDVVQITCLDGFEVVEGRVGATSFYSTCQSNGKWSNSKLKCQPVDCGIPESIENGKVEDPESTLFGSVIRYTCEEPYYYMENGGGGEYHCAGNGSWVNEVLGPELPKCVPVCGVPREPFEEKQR
T1 sequence (P09871 438-688 limits assumed): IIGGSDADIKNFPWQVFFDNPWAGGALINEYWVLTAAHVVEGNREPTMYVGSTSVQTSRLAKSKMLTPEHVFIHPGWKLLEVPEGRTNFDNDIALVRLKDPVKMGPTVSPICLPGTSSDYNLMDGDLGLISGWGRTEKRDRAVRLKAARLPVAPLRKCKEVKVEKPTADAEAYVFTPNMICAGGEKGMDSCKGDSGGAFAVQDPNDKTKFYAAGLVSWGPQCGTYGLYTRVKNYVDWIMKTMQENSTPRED
Assay: Anti-interference experiment of fluorescence detection method for activated C1s
Type: biochemical
Conditions: for measured activated C1s enzymatic activity: n = 4
Procedure: • 1. Preparation of a buffer: 1) Binding Buffer: 0.1 M morpholinoethanesulfonic acid (MES, pH=5.0); • 2) Washing Buffer: TBS containing 0.05% Tween 20; • 3) Blocking Buffer: containing 0.05 M Tris, 1.0% BSA, and 0.05% Tween 20; • 4) Desired Buffer: Tris buffer containing 0.05% Tween 20 and BSA; and • 5) Tris Buffer: 0.05 M Tris, 0.15 M NaCl, and 0.2% (w/v) polyethylene glycol 8000. • 2. Preparation of immunomagnetic beads (C1s recombinant antibody-coupled magnetic beads) • (1) 10 mg of magnetic beads (Merck carboxyl magnetic beads, with a particle size of 1 μm) were washed 3 times with 1 mL of Binding Buffer, and vortexed to mix evenly. • (2) 20 μg of the C1s recombinant antibody obtained in Example 1 was added into every 1 mg of the magnetic beads, mixed well, and vortexed at a room temperature (25° C.) for 15 min. • (3) 50 μg of a coupling agent was added into every 1 mg of the magnetic beads, mixed well, and vortexed at a room temperature for 1 h. • (4) 1 mL of Binding Buffer was added and vortexed at a room temperature for 3 h. • (5) The magnetic beads were washed 4 times with 0.5 mL of Washing Buffer. • (6) The magnetic beads were resuspended with 1 mL of Desired Buffer to obtain C1s recombinant antibody-coupled magnetic beads with a concentration of 5 mg/mL, and stored at 4° C. until later use. • 3. Detection of the enzymatic activity of activated C1s • (1) 60 μL of the C1s recombinant antibody-coupled magnetic beads were stirred evenly, subjected to magnetic suction to remove a supernatant, added with 200 μL of PBS to mix well, subjected to the magnetic suction to remove a supernatant, and washed repeatedly 2 times. • (2) 10 μL of a sample to be tested or activated C1s standards with different concentrations were diluted to 100 μL with PBS, and mixed vertically with the C1s recombinant antibody-coupled magnetic beads at a room temperature for 10 min. The magnetic suction was performed to discard a supernatant. According to the enzymatic activity of the C1s standard determined in Example 4, the enzymatic activity conversion of the C1s standards with different concentrations is shown in Table 2.
• (3) The magnetic beads were repeatedly washed 3 times with 100 μL of PBS. • (4) The magnetic beads were resuspended with 90 μL of Tris buffer. • (5) 10 μL of substrate peptide 3 was added at a concentration of 1 μg/mL. • (6) The detection was performed with a microplate reader at 360/40 excitation light wave and 460/40 emission light wave, with a best reaction time of 1 h as a detection point, and the fluorescence signals were measured and recorded. The straight line fitting was performed by taking a C1s enzymatic activity as an abscissa and a fluorescence signal as an ordinate with a double logarithmic Log-Log mathematical model and using a least square method to plot a standard curve.
The possibility that bilirubin, chyle, and hemoglobin in clinical samples cause interference in the experiment was taken into account. Referring to the interference check A kit, high-, medium-, and low-concentration standards were added with different concentrations of bilirubin (with final concentrations of 0 mg/mL, 0.06 mg/mL, 0.14 mg/mL, and 0.20 mg/mL, respectively), chyle (with final concentrations of 0 FTU, 600 FTU, 1,400 FTU, and 2,000 FTU, respectively), and a hemoglobin solution (with final concentrations of 0 mg/mL, 1.5 mg/mL, 3.5 mg/mL, and 5 mg/mL, respectively). The measured high, medium and low average concentrations containing different interfering substances were subtracted from the corresponding average concentrations without interfering substances, and a difference and a percentage of the difference in an average concentration of a blank control without interfering substances were calculated.

SMILES: C=CC1=C(C)/C(=C/c2[nH]c(Cc3[nH]c(/C=C4\NC(=O)C(C)=C4C=C)c(C)c3CCC(=O)O)c(CCC(=O)O)c2C)NC1=O [Bilirubin, bilirubin]
- measured activated C1s enzymatic activity (High value standard, bilirubin 0.06 mg/mL): 57.01 ± 4.59 pmol/min/µg
- measured activated C1s enzymatic activity (High value standard, bilirubin 0.14 mg/mL): 55.50 ± 4.50 pmol/min/µg
- measured activated C1s enzymatic activity (High value standard, bilirubin 0.20 mg/mL): 55.86 ± 3.15 pmol/min/µg
- measured activated C1s enzymatic activity (Low value standard, bilirubin 0.06 mg/mL): 5.85 ± 0.32 pmol/min/µg
- measured activated C1s enzymatic activity (Low value standard, bilirubin 0.14 mg/mL): 5.70 ± 0.25 pmol/min/µg
- measured activated C1s enzymatic activity (Low value standard, bilirubin 0.20 mg/mL): 5.61 ± 0.42 pmol/min/µg
- measured activated C1s enzymatic activity (Medium value standard, bilirubin 0.06 mg/mL): 31.04 ± 2.32 pmol/min/µg
- measured activated C1s enzymatic activity (Medium value standard, bilirubin 0.14 mg/mL): 30.80 ± 1.31 pmol/min/µg
- measured activated C1s enzymatic activity (Medium value standard, bilirubin 0.20 mg/mL): 26.93 ± 2.09 pmol/min/µg
- interference with the detection method (bilirubin 0.20 mg/mL): not interfered
